Data on 2 compounds can be found in publication PMC11013284, “Chemoselective Synthesis and Anti-Kinetoplastidal Properties of 2,6-Diaryl-4H-tetrahydro-thiopyran-4-one S-Oxides: Their Interplay in a Cascade of Redox Reactions from Diarylideneacetones” (Molecules, 2024).

This data set deals with human diploid embryonic lung fibroblast hMRC-5SV2 cells. As to the kind of experiment: Cytotoxicity toward hMRC-5SV2 cells (resazurin). To be noted: hMRC-5 cytotoxicity versus antiparasitic IC50. As to the method: The cytotoxicity of compounds was evaluated toward human diploid embryonic lung fibroblast hMRC-5SV2 cells, derived from fetal lung tissue and first described in 1970. hMRC-5SV2 cells were cultured in 96-well plates with five concentrations of the compound (64, 16, 4, 1, and 0.25 μM). After 3 days of incubation, the cell viability was assessed fluorimetrically after the addition of resazurin, and fluorescence was measured (λex = 550 nm, λem = 590 nm). The results were expressed as a percentage reduction in cell growth/viability compared to control wells, and a 50% cytotoxic concentration (CC50) was calculated. The reference cytotoxic drugs were tamoxifen or ivermectin. Additionally, toxicity toward mouse macrophages was qualitatively observed. Three concentrations were included (64, 16, and 4 µM), and the range of toxicity was ranked from the least toxic to the most toxic compound.
On the technique in general: Resazurin is reduced to fluorescent resorufin, in cell work by metabolically active cells.

With `O=C1CC(c2ccccn2)[S+]([O-])C(c2ccccn2)C1` (mixture of isomers) [3′w, (syn/anti)-cis-2,6-Di-(pyridin-2-yl)-4H-tetra-hydrothiopyran-4-one 1-oxide, as diastereoisomeric mixture], the selectivity index entry is given as “acceptable”.
For `O=C1CC(c2ccccn2)[S+]([O-])C(c2ccccn2)C1` (stereo not drawn) [3w, (±)-trans-2,6-Di-(pyridin-2-yl)-4H-tetrahydrothiopyran-4-one 1-oxide], the selectivity index result was “acceptable”.
